We go through four molecules from article PMC10164591, “RNA binding proteins Smaug and Cup induce CCR4–NOT-dependent deadenylation of the nanos mRNA in a reconstituted system”.

In assay [1] the target is T1, Smaug (split-ubiquitin two-hybrid bait) (D. melanogaster) (UniProt Q23972).
T1 sequence: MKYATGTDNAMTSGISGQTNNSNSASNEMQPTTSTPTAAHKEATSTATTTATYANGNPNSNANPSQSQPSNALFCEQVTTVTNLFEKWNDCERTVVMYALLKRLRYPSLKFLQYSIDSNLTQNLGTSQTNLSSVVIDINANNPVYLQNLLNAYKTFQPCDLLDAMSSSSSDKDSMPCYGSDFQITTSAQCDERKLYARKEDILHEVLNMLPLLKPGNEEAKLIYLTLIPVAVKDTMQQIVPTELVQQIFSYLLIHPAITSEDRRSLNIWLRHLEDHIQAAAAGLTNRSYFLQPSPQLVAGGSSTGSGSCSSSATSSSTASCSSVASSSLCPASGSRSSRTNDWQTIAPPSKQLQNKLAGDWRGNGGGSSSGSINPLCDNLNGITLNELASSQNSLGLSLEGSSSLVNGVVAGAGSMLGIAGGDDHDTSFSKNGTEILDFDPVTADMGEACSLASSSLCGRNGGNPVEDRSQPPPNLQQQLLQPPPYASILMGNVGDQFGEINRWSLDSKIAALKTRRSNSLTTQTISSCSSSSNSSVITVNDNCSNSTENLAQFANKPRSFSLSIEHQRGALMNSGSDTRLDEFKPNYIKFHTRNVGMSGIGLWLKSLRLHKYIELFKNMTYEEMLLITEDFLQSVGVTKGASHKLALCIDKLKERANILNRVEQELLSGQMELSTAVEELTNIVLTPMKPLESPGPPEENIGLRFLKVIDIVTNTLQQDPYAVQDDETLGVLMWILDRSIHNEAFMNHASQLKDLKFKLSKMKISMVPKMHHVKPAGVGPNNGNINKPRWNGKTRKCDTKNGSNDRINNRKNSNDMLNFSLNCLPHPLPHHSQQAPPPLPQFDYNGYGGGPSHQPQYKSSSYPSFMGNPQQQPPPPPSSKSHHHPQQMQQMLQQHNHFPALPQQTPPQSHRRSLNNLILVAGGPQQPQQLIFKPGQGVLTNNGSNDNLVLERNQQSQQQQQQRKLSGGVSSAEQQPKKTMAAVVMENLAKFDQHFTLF
The assay can be described thus: two-hybrid; split-ubiquitin yeast two-hybrid, NMY51 cells, Smaug as bait; growth on SC agar lacking Trp, Leu, His and adenine, three days.

Assay [2] deals with ^DmCCR4–NOT_(MINI) complex (D. melanogaster). The assay can be described thus: SEC; Smaug (15 μg) incubated with ^DmCCR4–NOT_(MINI) (15 μg) or buffer for 1 h at 8°C; Superose 6 (about 2.4 mL) in lysis buffer without PMSF and pepstatin A (500 mM NaCl, pH 7.6); fractions by Coomassie staining and western blot against Smaug; both purified.
Assay [3] deals with CAF40-FLAG (D. melanogaster). The assay can be described thus: co-purification (FLAG affinity chromatography) + SEC; six subunits co-expressed in Sf21 by co-infection with three baculoviruses; lysate on anti-FLAG M2 agarose (CAF40-FLAG, CCR4-FLAG), FLAG peptide elution, then Superose 6; 500 mM NaCl, 50 mM HEPES-NaOH, 10 mM potassium phosphate, pH 7.6, 10% sucrose.
The target of assay [4] is CCR4-FLAG (D. melanogaster). The assay is described as above.

These are yes or no findings as the source states them, for the method shown. Binding calls can cover weak binding; strength is not graded here. For some assays here: Where a sequence is shown, tags or fusion partners need not be part of it. For some assays here: In cells and extracts the contact can be indirect.

Regarding “NOT3 C-terminal region (split-ubiquitin two-hybrid prey) (D. melanogaster) (domain or fragment)”, in assay [1], the binding entry was “binds”.
Regarding “NOT3 (split-ubiquitin two-hybrid prey) (D. melanogaster)”, the binding result in assay [1] is given as “binds”.

B1: Smaug-FLAG (protein, UniProt Q23972 1-999)
chain: T1 sequence
On to B1, for which the binding entry in assay [2] was “binds”.

B2: His8-NOT2 (protein, UniProt Q94547 1-585)
chain: MANLNFQQPPRSIANAALAGRTTGGFGGSSLAGHVTPTSGMFQTDFANSYPGTANYGQAPQQQQQQQQQPQLSPNRNAQLSVGGPAISSGNRNANLFGQRQFVERRAMQGLGSGPMSNMGNFMQTGRGGYGTGGGGGGPLNNFHVFGGGGGSDTSTPALLDPTEFPSLTNARGQNDQTLPQSNPLQPPGSKPYGNFFTSFGMVKQPTSEQSEFTMSNEDFPALPGTQNSDGTTNAVGSVAGTGGSGGASTENHLDGTEKPMNSIVVSGSASGSSGSNVGVVGGNGLGAVGSGIGGLAVGGGGGAGSSGGGGVGGNAASGVVGGSHVGLVGSNSGIGGVNSVPNSNAMMGVGGGLGSGSGSSGSGAGGEHLNDNSSNDKLVKSGVQTSPDGKVTNIPATMVNNQFGMVGLLTFIRAAETDPNLVTLSLGTDLTGLGLNLNSQESLHTTFAGPFVAQPCRAQDVEFNVPPEYLINFAIRDKLTAPVLKKLQEDLLFFLFYTNIGDMMQLMAAAELHSREWRYHVEEKIWITRIPGIDQYEKNGTKERGTFYYFDAQSWKRLSKVFQIDPEKLDKCPNISAFMNGQSV
Regarding B2, the binding result in assay [3] and in assay [4] was “binds” each time.
